In PubChem BioAssay AID493014 (National Center for Advancing Translational Sciences (NCATS), 2011):
Screen size: about 340,000 compounds; about 170 (0.05%) were called active. Inconclusive results, whose numbers are uncertain, are shown with a selection of clear calls. Calls come from the whole dose curve; as a rule, active = well fitted inhibition curve with a large enough effect in the signal ratio, with a control signal flat (not every such curve was filed as active); inconclusive = small, poorly fitted or top-dose-only effect, or effect the other way, or a change in a side signal; inactive = flat fitted curve, though single readings scatter; the % refers to the signal ratio. A potency beside an inconclusive call is a rough fit, not a confirmed value.

Assay: qHTS Assay to Find Inhibitors of Chronic Active B-Cell Receptor Signaling;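 for activity change, negative = inhibition: plate controls were basal doxycycline-induced cells for no effect and cells given 10 µM MG132 for full effect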
Conditions: ABC-DLBCL IkBa-CBG/CBR reporter, luminescence ratio (green luciferase fused to IkBa over red control in TMD8 lymphoma cells), 4 h; activity change, negative = inhibition: at 46.1 µM (top of the series)
Summary of the method: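 TMD8 ABC-DLBCL cells carrying doxycycline-inducible green luciferase fused to IkappaBalpha plus unfused red luciferase were exposed to compounds (up to 46 uM) for 4 hrs at 37C. Activity came from the overlap-corrected green/red luminescence ratio.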
Potency is the fitted concentration of half-maximal effect.

SMILES | activity change, negative = inhibition | Potency
O=C(c1cc2ccc3cccnc3c2[nH]1)N1CCN(c2cccc(Cl)c2)CC1 | inconclusive: -2.28% | 
O=C1CC(Sc2ccc(Cl)cc2)C(=O)N1Cc1ccncc1 (stereo unspecified) |  | inconclusive: 20 µM [falling, partial curve, poor fit]
Cc1cc(C)c2c(NC(=S)NC(=O)c3ccccc3)nn(C)c2n1 |  | inconclusive: 22.4 µM [falling, single point]
O=C(CSc1nnnn1-c1ccc(Cl)cc1)Nc1cccnc1Cl | inactive: -3.36% | 
Cc1cc(OCC(=O)Nc2ccncc2)ccc1Cl | inactive: -10.6% | 
O=C(CSc1ccc(Cl)cc1)N1CCN(c2c(Cl)cccc2[N+](=O)[O-])CC1 | inconclusive: -3.07% | 
O=C(NC1CCCCC1)C(c1ccco1)N(C(=O)c1csnn1)c1ccc(Cl)cc1 (stereo unspecified) |  | inconclusive: 31.6 µM [falling, single point]
Cc1ccc(F)cc1NC(=O)CSc1nc(Nc2ccccc2)nc(N2CCOCC2)n1 | inactive: 0.719% | 
COc1ccc(N/C=C\C(=O)c2ccc3ccccc3c2)cc1 |  | inconclusive: 0.398 µM [falling, full curve]
CCOc1ccc(Br)cc1S(=O)(=O)Nc1ccc(C(=O)OCC(=O)Nc2ccc(C#N)cc2)cc1 | inconclusive: -0.862% | 
COc1ccc(/C=N/NC(=O)c2cc(C)oc2C)cc1OC |  | inconclusive: 20 µM [falling, partial curve, poor fit]
Cc1ccc(-c2n[nH]c(=O)c3ccccc23)cc1S(=O)(=O)NCCO | inconclusive: -26.8% | 
Cc1nn(C)cc1S(=O)(=O)Nc1ccccc1Br | inactive: 4.11% | 
CCOC(=O)c1[nH]c(C)c(C(=O)Nc2ccc(C)c(F)c2)c1C | inactive: -0.201% | 
Cc1ccc(C)c(NC(=O)Cc2coc3cc4c(cc23)CCC4)c1 | inconclusive: 6.63% | 
CN1CCN(c2ccc(Cl)cc2NS(=O)(=O)c2ccccc2Cl)CC1 | inactive: 13.1% | 
COc1ccc(N2CCN(C(=O)c3oc4ccccc4c3C)CC2)cc1 | inconclusive: -7.62% | 
Cc1[nH]c2ccccc2c1/C=N/NC(=O)C1CC1(c1ccccc1)c1ccccc1 (stereo unspecified) | inconclusive: -9.98% | 
O=C(Nc1ccc(Oc2ccc(Br)cc2)cc1)C1=CC=CN2CCS(=O)(=O)N=C12 | inconclusive: 5% | 
CCOC(=O)CCCCCC(=O)Nc1ccc2c(c1)C(=O)N([C@H](C)CO)C[C@H](C)[C@@H](CN(C)C(=O)Nc1ccc(OC)cc1)O2 | inconclusive: -4.77% | 
CCCN1C(=O)/C(=C2/C=Cc3ccccc3N2CC)SC1=S | inconclusive: 13.2% | 

Given tab-delimited: 8 of the compounds above
SMILES	activity change, negative = inhibition	Potency
Cc1cc(C)c2c(NC(=S)NC(=O)c3ccccc3)nn(C)c2n1		inconclusive: 22.4 µM [falling, single point]
CCOc1ccc(Br)cc1S(=O)(=O)Nc1ccc(C(=O)OCC(=O)Nc2ccc(C#N)cc2)cc1	inconclusive: -0.862%	
COc1ccc(/C=N/NC(=O)c2cc(C)oc2C)cc1OC		inconclusive: 20 µM [falling, partial curve, poor fit]
Cc1nn(C)cc1S(=O)(=O)Nc1ccccc1Br	inactive: 4.11%	
COc1ccc(N2CCN(C(=O)c3oc4ccccc4c3C)CC2)cc1	inconclusive: -7.62%	
Cc1[nH]c2ccccc2c1/C=N/NC(=O)C1CC1(c1ccccc1)c1ccccc1 (stereo unspecified)	inconclusive: -9.98%	
O=C(Nc1ccc(Oc2ccc(Br)cc2)cc1)C1=CC=CN2CCS(=O)(=O)N=C12	inconclusive: 5%	
CCCN1C(=O)/C(=C2/C=Cc3ccccc3N2CC)SC1=S	inconclusive: 13.2%	

(cont.)

SMILES | activity change, negative = inhibition | Potency
O=c1[nH]c(=S)[nH]c2c1C(c1ccc(Br)cc1)c1c([nH]c(=S)[nH]c1=O)O2 | inactive: 0.99% | 
CCN(c1ccccc1)S(=O)(=O)c1ccc(C(=O)NNC(=O)c2ccccc2F)cc1 | inconclusive: -9.84% | 
CC1(C)CC(=O)c2sc(NC(=O)C3CC3)nc2C1 | inconclusive: -16.2% | 
O=C(/C=C/c1ccc(Cl)cc1Cl)Nc1cccc(S(=O)(=O)NC2=NCCCCC2)c1 |  | inconclusive: 16.4 µM [falling, partial curve, poor fit]
CC(C)Cc1cc(C(=O)Nc2ccc(F)cc2F)no1 |  | inconclusive: 5.17 µM [falling, partial curve]
c1cc(-n2cnnn2)ccc1NC1=NCCC1 | inconclusive: 8.77% | 
CCOC(=O)C(=Cc1cc(=O)c(OC)co1)C(=O)OCC | inconclusive: 8.65% | 
CN(C(=S)NC(=O)CCCOc1ccc(Cl)cc1Cl)c1ccccc1 |  | inconclusive: 20.6 µM [rising, partial curve, poor fit]
CC(C)(C)C(=O)Nc1cc(S(=O)(=O)Nc2ccc(Cl)cc2)ccc1Cl | inconclusive: -3.85% | 
CC(=O)c1cccc(NC(=O)C=C(C)C)c1 | inconclusive: 1.64% | 
COc1cccc(C(=O)CC(C#N)c2ccc(F)cc2)c1 (stereo unspecified) | inconclusive: 1.11% | 
CCOc1c(Br)cc(/C=C2\C(=O)N(CCC#N)N=C2C)cc1OC |  | inconclusive: 23.1 µM [falling, partial curve]
N#Cc1ccsc1NC(=O)CN1CCCCCC1 | inactive: 8.32% | 
CCOC(=O)N1CCN(c2ccc([N+](=O)[O-])cc2)CC1 | inconclusive: 5.02% | 
CC(C)Oc1cccc(C(=O)NC(=S)Nc2cccc(NC(=O)c3ccccc3Cl)c2)c1 | inconclusive: -17.2% | 
O=C(Nc1nccs1)c1ccc(N2CCOCC2)c([N+](=O)[O-])c1 | inconclusive: -3.71% | 
C[C@H](CO)N1C[C@H](C)[C@@H](CN(C)C(=O)Nc2ccccc2)Oc2ccc(NC(=O)CCC(F)(F)F)cc2C1=O | inactive: 1.09% | 
CCCOc1ccc2[nH]c(C(=O)N/N=C/c3cc(OC)c(OC)c(OC)c3)cc2c1 | inconclusive: -25.8% | 
COC(=O)C1=C(C)N(c2cc(C)cc(C)c2)/C(=C/c2ccc(O)cc2)C1=O | inconclusive: -1.17% | 
O=C(CSc1nnc(-c2ccccc2O)o1)Oc1ccc(OCc2ccccc2)cc1 | inconclusive: 14.4% | 
